Measured values taken from the supplement of paper PMC4635364.
Some of the results follow. This data set is noisy: repeats of one test often differ as much as different tests do.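 ReNCell VM, a human fetal ventral-midbrain neural progenitor line, was differentiated without mitogens. Blinded raters scored images stained for doublecortin (early neurons) or tyrosine hydroxylase (dopaminergic neurons) against untreated wells (0 = no change). Scores were averaged across repeats and both raters, and compounds averaging 2 or more were selected as hits for retesting.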

Key:
ReNCell VM [1] = experiment: neuronal differentiation score (DCX+ cell fraction vs untreated, manual image score) (score (-3 to 3)); higher = more neuronal differentiation; conditions: 2 uM, 2 weeks
ReNCell VM [2] = experiment: dopaminergic neuron differentiation score (TH+ cell fraction vs untreated, manual image score) (score (0 to 3)); higher = more TH+ dopaminergic neuron differentiation; conditions: 2 uM, 4 weeks, BDNF 10 ng/ml + GDNF 10 ng/ml

Q: How did the neuronal differentiation score (ReNCell VM [1]; library: Tocriscreen) turn out when `O=C(O)CCC(CP(=O)(O)O)C(=O)O` (stereo not given) [PMPA (NAALADase inhibitor)] was run?
A: The neuronal differentiation score was inactive: -3.

Q: And the “dopaminergic neuron differentiation score” value (ReNCell VM [2]; library: Tocriscreen)?
A: Its value is inactive: 0.

Q: How did the neuronal differentiation score (ReNCell VM [1]; library: Spectrum) turn out when `CC1(C)C2CC(=O)[C@]3(C)C(CC[C@@]4(C)[C@H](c5ccoc5)OC(=O)[C@H]5O[C@]543)[C@@]2(C)C(=O)C[C@H]1O` (stereo not given in full) was run?
A: The neuronal differentiation score was inactive: 0.

Q: What about the “dopaminergic neuron differentiation score” value (ReNCell VM [2]; library: Spectrum) of the same molecule?
A: The value was inactive: 0.

Q: With `CC(C)CC(N(C)C)C1(c2ccc(Cl)cc2)CCC1` (stereo not given) as the molecule, how does the neuronal differentiation score (ReNCell VM [1]; library: Spectrum) read?
A: The neuronal differentiation score was inactive: 0.

Q: And the “dopaminergic neuron differentiation score” value (ReNCell VM [2]; library: Spectrum)?
A: Its value is inactive: 0.

Q: For `CN1CCc2cc3c(cc2C1C1OC(=O)c2c1ccc1c2OCO1)OCO3` (single isomer, unassigned; (+)) [(+)-Bicuculline], which neuronal differentiation score (ReNCell VM [1]; library: Tocriscreen) is on record?
A: Its neuronal differentiation score is inactive: 1.

Q: And the “dopaminergic neuron differentiation score” value (ReNCell VM [2]; library: Tocriscreen)?
A: The value was inactive: 0.

Q: With `C[N+]1(C)[C@@H]2CC[C@H]1C[C@@H](OC(=O)C(CO)c1ccccc1)C2` (stereo not given in full) [Methylatropine nitrate] as the molecule, how does the neuronal differentiation score (ReNCell VM [1]; library: Prestwick) read?
A: Its neuronal differentiation score is inactive: 0.

Q: And the “dopaminergic neuron differentiation score” value (ReNCell VM [2]; library: Prestwick)?
A: The value was inactive: 0.

Q: For `CC(=O)O[C@H]1CC[C@@]2(C)C(=CC[C@@H]3[C@@H]2CC[C@]2(C)C(=O)CC[C@@H]32)C1` [Dehydroisoandosterone 3-acetate], which neuronal differentiation score (ReNCell VM [1]; library: Prestwick) is on record?
A: The neuronal differentiation score was inactive: 0.

Q: What about the “dopaminergic neuron differentiation score” value (ReNCell VM [2]; library: Prestwick) of the same molecule?
A: The value was inactive: 0.

Q: How did the neuronal differentiation score (ReNCell VM [1]; library: Spectrum) turn out when `CC1(C)C(=O)C=C[C@]2(C)[C@H]3CC[C@@]4(C)[C@H](c5ccoc5)OC(=O)[C@H]5O[C@]54[C@]3(C)[C@H](O)C[C@@H]12` was run?
A: The neuronal differentiation score was inactive: -1.

Q: And the “dopaminergic neuron differentiation score” value (ReNCell VM [2]; library: Spectrum)?
A: The value was inactive: 1.

Q: `BrC1C(Br)C(Br)C(Br)C(Br)C1Br` (stereo not given) [1,2,3,4,5,6-Hexabromocyclohexane] was tested. Which neuronal differentiation score (ReNCell VM [1]; library: Tocriscreen) did it give?
A: Its neuronal differentiation score is inactive: 0.

Q: And the “dopaminergic neuron differentiation score” value (ReNCell VM [2]; library: Tocriscreen)?
A: The value was inactive: 0.

Q: `Cc1ccc(O)cc1.Cc1cccc(O)c1.Cc1ccccc1O` was tested. Which neuronal differentiation score (ReNCell VM [1]; library: Spectrum) did it give?
A: Its neuronal differentiation score is inactive: 0.

Q: And the “dopaminergic neuron differentiation score” value (ReNCell VM [2]; library: Spectrum)?
A: Its value is inactive: 0.

Q: Which results are given for `C[C@@H]1O[C@@H](O[C@H]2CC[C@]3(C=O)[C@H]4CC[C@]5(C)[C@@H](C6=CC(=O)OC6)CC[C@]5(O)[C@@H]4CC[C@]3(O)C2)[C@H](O)[C@H](O)[C@H]1O` [convallatoxin]?
A: neuronal differentiation score (ReNCell VM [1]; library: Natural): inactive: 0; dopaminergic neuron differentiation score (ReNCell VM [2]; library: Natural): inactive: 0
